Test results reported in publication PMC12848160.
No constants are given. Whether binding was seen depends on the method and setting. In cells and extracts the contact can be indirect. Some results given as binding are weak or reduced against the parent protein; the word gives no strength. Sequences can lack the tags named with a protein.

The chains behind the UniProt entries cited, without tags or fusion partners.
UniProt P48382: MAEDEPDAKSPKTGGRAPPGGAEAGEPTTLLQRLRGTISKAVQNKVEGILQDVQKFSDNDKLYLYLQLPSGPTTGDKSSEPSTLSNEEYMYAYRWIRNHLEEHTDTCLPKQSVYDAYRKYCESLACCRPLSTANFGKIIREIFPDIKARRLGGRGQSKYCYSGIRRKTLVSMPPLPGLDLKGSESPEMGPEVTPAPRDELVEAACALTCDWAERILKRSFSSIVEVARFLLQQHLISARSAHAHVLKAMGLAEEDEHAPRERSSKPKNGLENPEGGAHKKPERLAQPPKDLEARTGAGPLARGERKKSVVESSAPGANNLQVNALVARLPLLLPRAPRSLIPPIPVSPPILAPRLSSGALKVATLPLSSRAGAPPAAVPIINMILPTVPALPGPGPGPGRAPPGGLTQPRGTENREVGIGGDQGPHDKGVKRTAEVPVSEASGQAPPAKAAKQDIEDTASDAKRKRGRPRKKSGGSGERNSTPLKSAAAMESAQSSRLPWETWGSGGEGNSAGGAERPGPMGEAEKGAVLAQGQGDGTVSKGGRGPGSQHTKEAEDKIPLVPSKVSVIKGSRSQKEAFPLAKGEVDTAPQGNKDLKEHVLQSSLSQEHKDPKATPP

Biological target: FLAG-RFX5 (UniProt P48382)
Experiment: co-IP; 293T cells co-transfected with FLAG-RFX5 and MED23-MYC plasmids; lysis in 1% NP-40, 10% glycerol, 135 mM NaCl, 20 mM Tris pH 8.0; anti-Flag beads, 4 °C overnight; Western blot

B1: MED23-MYC (protein, UniProt Q9ULK4 1-1368)
chain: METQLQSIFEEVVKTEVIEEAFPGMFMDTPEDEKTKLISCLGAFRQFWGGLSQESHEQCIQWIVKFIHGQHSPKRISFLYDCLAMAVETGLLPPRLVCESLINSDTLEWERTQLWALTFKLVRKIIGGVDYKGVRDLLKVILEKILTIPNTVSSAVVQQLLAAREVIAYILERNACLLPAYFAVTEIRKLYPEGKLPHWLLGNLVSDFVDTFRPTARINSICGRCSLLPVVNNSGAICNSWKLDPATLRFPLKGLLPYDKDLFEPQTALLRYVLEQPYSRDMVCNMLGLNKQHKQRCPVLEDQLVDLVVYAMERSETEEKFDDGGTSQLLWQHLSSQLIFFVLFQFASFPHMVLSLHQKLAGRGLIKGRDHLMWVLLQFISGSIQKNALADFLPVMKLFDLLYPEKEYIPVPDINKPQSTHAFAMTCIWIHLNRKAQNDNSKLQIPIPHSLRLHHEFLQQSLRNKSLQMNDYKIALLCNAYSTNSECFTLPMGALVETIYGNGIMRIPLPGTNCMASGSITPLPMNLLDSLTVHAKMSLIHSIATRVIKLAHAKSSVALAPALVETYSRLLVYMEIESLGIKGFISQLLPTVFKSHAWGILHTLLEMFSYRMHHIQPHYRVQLLSHLHTLAAVAQTNQNQLHLCVESTALRLITALGSSEVQPQFTRFLSDPKTVLSAESEELNRALILTLARATHVTDFFTGSDSIQGTWCKDILQTIMSFTPHNWASHTLSCFPGPLQAFFKQNNVPQESRFNLKKNVEEEYRKWKSMSNENDIITHFSMQGSPPLFLCLLWKMLLETDHINQIGYRVLERIGARALVAHVRTFADFLVYEFSTSAGGQQLNKCIEILNDMVWKYNIVTLDRLILCLAMRSHEGNEAQVCYFIIQLLLLKPNDFRNRVSDFVKENSPEHWLQNDWHTKHMNYHKKYPEKLYFEGLAEQVDPPVQIQSPYLPIYFGNVCLRFLPVFDIVIHRFLELLPVSKSLETLLDHLGGLYKFHDRPVTYLYNTLHYYEMHLRDRAFLKRKLVHAIIGSLKDNRPQGWCLSDTYLKCAMNAREENPWVPDDTYYCRLIGRLVDTMAGKSPGPFPNCDWRFNEFPNPAAHALHVTCVELMALAVSGKEVGNALLNVVLKSQPLVPRENITAWMNAIGLIITALPEPYWIVLHDRIVSVISSPSLTSETEWVGYPFRLFDFTACHQSYSEMSCSYTLALAHAVWHHSSIGQLSLIPKFLTEVLLPIVKTEFQLLYVYHLVGPFLQRFQQERTRCMIEIGVAFYDMLLNVDQCSTHLNYMDPICDFLYHMKYMFTGDSVKEQVEKIICNLKPALKLRLRFITHISKMEPAAVPPQAMNSGSPAPQSNQVPVSLPVTQ
binding: binds
